From the supplement of paper PMC8728848
The other results are listed elsewhere or left out.

Tests used:
Experiment in all cases: glycan array binding signal (z-score within array); higher = stronger binding
Details in all cases: glycan notation: IUPAC condensed, linker removed
[1] = biological target: GlcNAc6S(b1-3)Gal(b1-4)GlcNAc
Outline: (§1)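 The binding signal is a Z-score computed within each array and averaged over linkers. Arrays of the same protein sequence at different concentrations or buffers were also averaged together. Data originate from 3228 arrays in the Consortium for Functional Glycomics database, kept only where the protein sequence was available.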

Kdn(a2-3)Gal(b1-3)GalNAc = biological target: Kdn(a2-3)Gal(b1-3)GalNAc
Outline: as §1

Kdn(a2-3)Gal(b1-3)GlcNAc = biological target: Kdn(a2-3)Gal(b1-3)GlcNAc
Outline: as §1

Kdn(a2-3)Gal(b1-4)Glc = biological target: Kdn(a2-3)Gal(b1-4)Glc
Outline: as §1

Kdn(a2-3)Gal(b1-4)GlcNAc = biological target: Kdn(a2-3)Gal(b1-4)GlcNAc
Outline: as §1

[2] = biological target: Kdn(a2-3)Gal(b1-4)[Fuc(a1-3)]GlcNAc
Outline: as §1

Kdn(a2-6)Gal(b1-4)GlcNAc = biological target: Kdn(a2-6)Gal(b1-4)GlcNAc
Outline: as §1

[3] = biological target: Man(a1-2)Man(a1-2)Man(a1-3)Man
Outline: as §1

[4] = biological target: Man(a1-2)Man(a1-2)Man(a1-6)[Man(a1-3)]Man
Outline: as §1

Man(a1-2)Man(a1-3)Man = biological target: Man(a1-2)Man(a1-3)Man
Outline: as §1

[5] = biological target: Man(a1-2)Man(a1-3)[Man(a1-2)Man(a1-6)]Man
Outline: as §1

[6] = biological target: Man(a1-2)Man(a1-3)[Man(a1-2)Man(a1-6)]Man(a1-6)[Man(a1-2)Man(a1-2)Man(a1-3)]Man
Outline: as §1

[7] = biological target: Man(a1-2)Man(a1-3)[Man(a1-2)Man(a1-6)]Man(a1-6)[Man(a1-2)Man(a1-2)Man(a1-3)]Man(b1-4)GlcNAc(b1-4)GlcNAc
Outline: as §1

[8] = biological target: Man(a1-2)Man(a1-3)[Man(a1-6)]Man(a1-6)[Man(a1-2)Man(a1-3)]Man(b1-4)GlcNAc(b1-4)GlcNAc
Outline: as §1

[9] = biological target: Man(a1-2)Man(a1-6)[Man(a1-3)]Man(a1-6)[Man(a1-2)Man(a1-2)Man(a1-3)]Man
Outline: as §1

[10] = biological target: Man(a1-2)Man(a1-6)[Man(a1-3)]Man(a1-6)[Man(a1-2)Man(a1-2)Man(a1-3)]Man(b1-4)GlcNAc(b1-4)GlcNAc
Outline: as §1

Man(a1-3)[Man(a1-6)]Man = biological target: Man(a1-3)[Man(a1-6)]Man
Outline: as §1

[11] = biological target: Man(a1-3)[Man(a1-6)]Man(a1-6)[Man(a1-2)Man(a1-3)]Man(b1-4)GlcNAc(b1-4)GlcNAc
Outline: as §1

[12] = biological target: Man(a1-3)[Man(a1-6)]Man(a1-6)[Man(a1-3)]Man
Outline: as §1

[13] = biological target: Man(a1-3)[Man(a1-6)]Man(a1-6)[Man(a1-3)]Man(b1-4)GlcNAc(b1-4)GlcNAc
Outline: as §1

[14] = biological target: Man(a1-3)[Man(a1-6)]Man(b1-4)GlcNAc(b1-4)GlcNAc
Outline: as §1

Man(a1-6)Man = biological target: Man(a1-6)Man
Outline: as §1

Man(b1-4)GlcNAc = biological target: Man(b1-4)GlcNAc
Outline: as §1

Neu5Ac(a2-3)Gal = biological target: Neu5Ac(a2-3)Gal
Outline: as §1

[15] = biological target: Neu5Ac(a2-3)Gal(b1-3)GalNAc
Outline: as §1

[16] = biological target: Neu5Ac(a2-3)Gal(b1-3)GalNAc(b1-3)Gal(a1-4)Gal(b1-4)Glc
Outline: as §1

[17] = biological target: Neu5Ac(a2-3)Gal(b1-3)GalNAc(b1-4)[Neu5Ac(a2-3)]Gal(b1-4)Glc
Outline: as §1

[18] = biological target: Neu5Ac(a2-3)Gal(b1-3)GalNAc6S
Outline: as §1

[19] = biological target: Neu5Ac(a2-3)Gal(b1-3)GlcNAc
Outline: as §1

[20] = biological target: Neu5Ac(a2-3)Gal(b1-3)GlcNAc(b1-2)Man(a1-3)[Neu5Ac(a2-3)Gal(b1-3)GlcNAc(b1-2)Man(a1-6)]Man(b1-4)GlcNAc(b1-4)GlcNAc
Outline: as §1

[21] = biological target: Neu5Ac(a2-3)Gal(b1-3)GlcNAc(b1-3)Gal(b1-3)GlcNAc
Outline: as §1

[22] = biological target: Neu5Ac(a2-3)Gal(b1-3)GlcNAc(b1-3)Gal(b1-4)GlcNAc
Outline: as §1

[23] = biological target: Neu5Ac(a2-3)Gal(b1-3)GlcNAc(b1-3)GalNAc
Outline: as §1

[24] = biological target: Neu5Ac(a2-3)Gal(b1-3)GlcNAc6S
Outline: as §1

[25] = biological target: Neu5Ac(a2-3)Gal(b1-3)[Fuc(a1-4)]GlcNAc
Outline: as §1

[26] = biological target: Neu5Ac(a2-3)Gal(b1-3)[Fuc(a1-4)]GlcNAc(b1-3)Gal(b1-3)[Fuc(a1-4)]GlcNAc
Outline: as §1

[27] = biological target: Neu5Ac(a2-3)Gal(b1-3)[Fuc(a1-4)]GlcNAc(b1-3)Gal(b1-4)[Fuc(a1-3)]GlcNAc
Outline: as §1

[28] = biological target: Neu5Ac(a2-3)Gal(b1-3)[Neu5Ac(a2-3)Gal(b1-4)]GlcNAc
Outline: as §1

[29] = biological target: Neu5Ac(a2-3)Gal(b1-3)[Neu5Ac(a2-6)]GalNAc
Outline: as §1

Neu5Ac(a2-3)Gal(b1-4)Glc = biological target: Neu5Ac(a2-3)Gal(b1-4)Glc
Outline: as §1

[30] = biological target: Neu5Ac(a2-3)Gal(b1-4)GlcNAc
Outline: as §1

[31] = biological target: Neu5Ac(a2-3)Gal(b1-4)GlcNAc(b1-2)Man(a1-3)[GlcNAc(b1-2)Man(b1-4)GlcNAc(b1-2)Man(a1-6)]Man(b1-4)GlcNAc(b1-4)GlcNAc
Outline: as §1

[32] = biological target: Neu5Ac(a2-3)Gal(b1-4)GlcNAc(b1-2)Man(a1-3)[Neu5Ac(a2-6)Gal(b1-4)GlcNAc(b1-2)Man(a1-6)]Man(b1-4)GlcNAc(b1-4)GlcNAc
Outline: as §1

[33] = biological target: Neu5Ac(a2-3)Gal(b1-4)GlcNAc(b1-3)Gal(b1-3)GlcNAc
Outline: as §1

[34] = biological target: Neu5Ac(a2-3)Gal(b1-4)GlcNAc(b1-3)Gal(b1-4)GlcNAc
Outline: as §1

[35] = biological target: Neu5Ac(a2-3)Gal(b1-4)GlcNAc(b1-3)Gal(b1-4)GlcNAc(b1-3)Gal(b1-4)GlcNAc
Outline: as §1

[36] = biological target: Neu5Ac(a2-3)Gal(b1-4)GlcNAc(b1-3)Gal(b1-4)[Fuc(a1-3)]GlcNAc
Outline: as §1

[37] = biological target: Neu5Ac(a2-3)Gal(b1-4)GlcNAc(b1-3)GalNAc
Outline: as §1

[38] = biological target: Neu5Ac(a2-3)Gal(b1-4)GlcNAc(b1-6)[Gal(b1-3)]GalNAc
Outline: as §1

[39] = biological target: Neu5Ac(a2-3)Gal(b1-4)GlcNAc(b1-6)[Neu5Ac(a2-3)Gal(b1-3)]GalNAc
Outline: as §1

[40] = biological target: Neu5Ac(a2-3)Gal(b1-4)GlcNAc6S
Outline: as §1

[41] = biological target: Neu5Ac(a2-3)Gal(b1-4)[Fuc(a1-3)]GlcNAc
Outline: as §1

[42] = biological target: Neu5Ac(a2-3)Gal(b1-4)[Fuc(a1-3)]GlcNAc(b1-3)Gal
Outline: as §1

[43] = biological target: Neu5Ac(a2-3)Gal(b1-4)[Fuc(a1-3)]GlcNAc(b1-3)Gal(b1-4)GlcNAc
Outline: as §1

[44] = biological target: Neu5Ac(a2-3)Gal(b1-4)[Fuc(a1-3)]GlcNAc(b1-3)Gal(b1-4)[Fuc(a1-3)]GlcNAc(b1-3)Gal(b1-4)[Fuc(a1-3)]GlcNAc
Outline: as §1

B1: PEB3 (Campylobacter jejuni), Q0PBL7 (protein)
chain: MKKIITLFGACALAFSMANADVNLYGPGGPHTALKDIANKYSEKTGVKVNVNFGPQATWFEKAKKDADILFGASDQSALAIASDFGKDFNVSKIKPLYFREAIILTQKGNPLKIKGLKDLANKKVRIVVPEGAGKSNTSGTGVWEDMIGRTQDIKTIQNFRNNIVAFVPNSGSARKLFAQDQADAWITWIDWSKSNPDIGTAVAIEKDLVVYRTFNVIAKEGASKETQDFIAYLSSKEAKEIFKKYGWRE
- glycan array binding signal (z-score) [1]: 1.03
- glycan array binding signal (z-score) (Kdn(a2-3)Gal(b1-3)GalNAc): -0.454
- glycan array binding signal (z-score) (Kdn(a2-3)Gal(b1-3)GlcNAc): 0.448
- glycan array binding signal (z-score) (Kdn(a2-3)Gal(b1-4)Glc): 0.655
- glycan array binding signal (z-score) (Kdn(a2-3)Gal(b1-4)GlcNAc): 0.159
- glycan array binding signal (z-score) [2]: -1.63
- glycan array binding signal (z-score) (Kdn(a2-6)Gal(b1-4)GlcNAc): -0.205
- glycan array binding signal (z-score) [3]: 0.073
- glycan array binding signal (z-score) [4]: 0.18
- glycan array binding signal (z-score) (Man(a1-2)Man(a1-3)Man): -0.169
- glycan array binding signal (z-score) [5]: -0.758
- glycan array binding signal (z-score) [6]: 0.542
- glycan array binding signal (z-score) [7]: -1.19
- glycan array binding signal (z-score) [8]: -0.005
- glycan array binding signal (z-score) [9]: -0.36
- glycan array binding signal (z-score) [10]: 0.371
- glycan array binding signal (z-score) (Man(a1-3)[Man(a1-6)]Man): -0.633
- glycan array binding signal (z-score) [11]: -0.739
- glycan array binding signal (z-score) [12]: -1.11
- glycan array binding signal (z-score) [13]: 1.57
- glycan array binding signal (z-score) [14]: -0.607
- glycan array binding signal (z-score) (Man(a1-6)Man): 0.414
- glycan array binding signal (z-score) (Man(b1-4)GlcNAc): 0.127
- glycan array binding signal (z-score) (Neu5Ac(a2-3)Gal): -0.668
- glycan array binding signal (z-score) [15]: -1.07
- glycan array binding signal (z-score) [16]: -0.352
- glycan array binding signal (z-score) [17]: -0.541
- glycan array binding signal (z-score) [18]: -1.19
- glycan array binding signal (z-score) [19]: -0.289
- glycan array binding signal (z-score) [20]: -1.37
- glycan array binding signal (z-score) [21]: -0.681
- glycan array binding signal (z-score) [22]: -0.117
- glycan array binding signal (z-score) [23]: -0.701
- glycan array binding signal (z-score) [24]: -1.44
- glycan array binding signal (z-score) [25]: 0.777
- glycan array binding signal (z-score) [26]: 0.108
- glycan array binding signal (z-score) [27]: 0.794
- glycan array binding signal (z-score) [28]: -0.899
- glycan array binding signal (z-score) [29]: 0.075
- glycan array binding signal (z-score) (Neu5Ac(a2-3)Gal(b1-4)Glc): -0.913
- glycan array binding signal (z-score) [30]: -0.614
- glycan array binding signal (z-score) [31]: 0.752
- glycan array binding signal (z-score) [32]: -0.36
- glycan array binding signal (z-score) [33]: -1.02
- glycan array binding signal (z-score) [34]: 0.445
- glycan array binding signal (z-score) [35]: -1.17
- glycan array binding signal (z-score) [36]: 0.473
- glycan array binding signal (z-score) [37]: -0.101
- glycan array binding signal (z-score) [38]: -0.744
- glycan array binding signal (z-score) [39]: -1.04
- glycan array binding signal (z-score) [40]: 0.164
- glycan array binding signal (z-score) [41]: -0.771
- glycan array binding signal (z-score) [42]: -0.437
- glycan array binding signal (z-score) [43]: 0.992
- glycan array binding signal (z-score) [44]: -0.931
